# Test results taken from patent publication US20210038564A1, “METHODS FOR SCAR PREVENTION” (Northwestern University, priority 2009, published 2021).
# For at least one compound, name, drawing or mass did not settle the structure.
# What was measured:
# [1] = system: hypertrophic scar formation; test: Hypertrophic scar model in rabbit ear, 7-mm wounds, scar elevation index; assay type: in vivo, rabbit (New Zealand White); details: lowest level of drug administered (40 μM per wound), injections on days 15, 20, 25, harvest on day 35, versus vehicle
# Excerpt: Using a well-established hypertrophic scar model in rabbit ear (Brown et al. (2008) Plast. Reconstr. Surg. 121:1165-1172; Kim et al. (2003) Wound Repair Regen. 11:368-372; Kryger et al. (2007) J Am. Coll. Surg. 205:78-88; Lu et al. (2005) J Am. Coll. Surg. 201:391-397; Morris et al. (2007) Plast. Reconstr. Surg. 100:674-681; Reid et al. (2006) Wound Repair Regen. 14:138-141; Reid et al. (2007) J Plast. Reconstr. Aesthet. Surg. 60:64-72; Saulis et al. (2002) Plast. Reconstr. Surg. 110:177-183; each herein incorporated by reference in its entirety), the effects of local administration of statins (e.g., Simvastatin, Lovastatin, Prevastatin) were investigated in experiments conducted during the course of developing some embodiments of the present technology. […] The effectiveness of statin administration on inhibition of hypertrophic scar formation was assessed by histological determination of scar elevation index (FIG. 1). The scar elevation index is determined by the ratio of total wound area tissue height to the area of normal tissue below the hypertrophic scar. […]
# Whereas the dosages in terms of μMol were equivalent for all 3 statins, the μg dosage levels for Lovastatin and Prevastatin were double those used for Simvastatin. Scar Elevation Index was determined for 28 rabbits, as indicated: […]
# [2] = system: hypertrophic scar formation; test: Hypertrophic scar model in rabbit ear, 10-mm wounds, scar elevation index (pilot); assay type: in vivo, rabbit (New Zealand White); details: Simvastatin versus control (no treatment), p=0.001, FIG. 2
smiles,measurement,setting,value
CCC(C)(C)C(=O)O[C@H]1C[C@@H](C)C=C2C=C[C@H](C)[C@H](CC[C@@H]3C[C@@H](O)CC(=O)O3)[C@H]21 [Simvastatin],scar elevation index (SEI),[1],significantly lower SEI
same,scar elevation index (SEI),[2],statistically significant decrease in SEI
